Measured values reported in PubChem BioAssay AID651687 (Broad Institute, 2012).
In all, about 350,000 compounds went through this assay and about 600 (0.17%) were called active. The source calls these results inconclusive, neither active nor inactive.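 The calls were made as follows: active = every replicate shows inhibition of at least 40%; inconclusive = mean inhibition at least 40% but some replicate below; inactive = the rest.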

Experiment: compounds lowering acetylated PGC1a in cells – cell-based, U2OS, AlphaScreen, inhibitor mode, primary screen (AID 651687);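 also: 0% = neutral control wells and 100% = positive control wells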
Settings: U2OS PGC1a acetylation, AlphaScreen anti-acetyl-lysine; at 15.6 µM; active compounds read high; with virally co-expressed GCN5 acetyltransferase

**Q.** For `Cc1nc2ccc3ccccc3c2s1.O=[N+]([O-])c1cc([N+](=O)[O-])c(O)c([N+](=O)[O-])c1`, which inhibition is on record?
**A.** inconclusive: 50.5%
